Results: publication doi:10.1101/2022.02.15.480428
Changes are numbered by the printed parent chain. Names may count otherwise. These are yes or no findings as the source states them, for the method shown. In cells and extracts the contact can be indirect. Some entries that bind do so weakly or less than the wild type. Sequences can lack the tags named with a protein.

Chains of the proteins cited; added tags and fusions are not shown. Lines headed by an entry give the natural chain unless they say otherwise; changes in a name come on top. Residues count along the entry.
UniProt P48727: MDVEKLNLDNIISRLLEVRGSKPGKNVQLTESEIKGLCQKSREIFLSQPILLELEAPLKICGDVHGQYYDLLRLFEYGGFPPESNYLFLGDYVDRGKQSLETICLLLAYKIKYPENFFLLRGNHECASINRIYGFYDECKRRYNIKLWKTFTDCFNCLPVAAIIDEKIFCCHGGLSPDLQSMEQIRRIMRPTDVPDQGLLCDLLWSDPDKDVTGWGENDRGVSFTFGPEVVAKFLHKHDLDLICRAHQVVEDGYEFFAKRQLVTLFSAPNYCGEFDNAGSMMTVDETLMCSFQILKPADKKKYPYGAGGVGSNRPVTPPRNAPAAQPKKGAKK
3xFLAG:GFP:GSP-2(Δ13): residues 1-320 of P48727
UniProt P62136: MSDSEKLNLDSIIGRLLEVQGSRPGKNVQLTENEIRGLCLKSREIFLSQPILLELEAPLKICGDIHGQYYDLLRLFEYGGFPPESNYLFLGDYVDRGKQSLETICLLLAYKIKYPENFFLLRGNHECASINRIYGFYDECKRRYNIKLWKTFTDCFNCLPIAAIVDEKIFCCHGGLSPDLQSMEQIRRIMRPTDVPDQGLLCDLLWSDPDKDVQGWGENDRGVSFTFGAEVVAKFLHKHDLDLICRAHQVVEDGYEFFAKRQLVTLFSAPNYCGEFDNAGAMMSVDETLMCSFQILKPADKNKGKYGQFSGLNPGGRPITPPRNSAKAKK

B1: APE-1 endogenously tagged on its C-terminus with myc-tag:HaloTag (protein, UniProt Q9XVN3 1-769)
chain: MVTTSSGGGIGYPANNGVTQVSLIHSSDSVRTVSTAPIYRPTSSMASTMAHKSSTAPFISANQRMSKPPVRVVAQPPPPHPQALSQQYHQQNPMMMYSAPNTRPHVIPTMQVQPTMAAQIKRNNPVNAQFQNPSEMIADYGVKPQSVEMVQRVRAVRRQVADEETELRRLRELEHETAQLQNKNYGRERELNVQGSMLKEAQLELRNASMRAQSLNKHLEEMYRRRQTAAAAALVEQRKMQQHQILLARAANQVSTQEVIRPRASVEPFQVNNTQQQQPSPQMMKSEEFSEKRDLNGQTGSYDAIDGSGDHQKIPTEPSYLAPCKENQQKYSELSKMASTDPHSNHSSPSTSSQKAPTLITFSPPSFEQKINSSTMTRDSPFVERPTSFGDSLDESRLRSGKTDLVSLRSDSLKATKRRSWAASEGTSMSEAEMIHRLLDEQRRGRSHFIPQLPTSQEEPSAITSETYAEEVVNSESKQVATSSDSTNNLELPTEQMVLGSDTTTEEDASSCSTRSDDGQNLEMEVAIERRTVKGILRRPNEKMNKGRIEFDPLALLLDAALEGELDLVRSSASKLTDVSQANDEGITALHNAICAGHYEIVRFLIENDADVNAQDSDGWTPLHCAASCNNLPMVRQLVEGGGCVLASTLSDMETPVEKCEEDEDGYDGCLKYLSAAHNSTGSINTGKVYAAYGYEAAFEDELSFDAGDELTVIEKDKVDKNWWTCEKNNGEKGQVPRTYLALYPSLKYRKKLNFVMFDLPLESNNNVE
B2: APE-1(N583K):HT (protein, UniProt Q9XVN3 1-769)
chain: B1 chain with N583K
B3: APE-1(H591Y):HT (protein, UniProt Q9XVN3 1-769)
chain: B1 chain with H591Y

How the values were obtained:
[1] = target: T1, H. sapiens iASPP C-terminal domains (amino acids 602-828) with HA-tag and HaloTag (H. sapiens) (UniProt Q8WUF5); assay: pull-down
T1 sequence: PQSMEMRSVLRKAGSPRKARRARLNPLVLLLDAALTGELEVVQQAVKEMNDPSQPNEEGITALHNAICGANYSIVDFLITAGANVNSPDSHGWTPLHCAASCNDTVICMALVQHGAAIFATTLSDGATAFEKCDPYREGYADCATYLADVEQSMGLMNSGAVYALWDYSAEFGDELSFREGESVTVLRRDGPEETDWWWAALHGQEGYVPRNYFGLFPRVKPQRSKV

[2] = target: GSP-2 endogenously tagged on its N-terminus with 3XFLAG:GFP (C. elegans) (UniProt P48727); assay: co-IP
[3] = target: 3xFLAG:GFP:GSP-2(Δ13) (C. elegans) (UniProt P48727); assay: co-IP

Molecule | binding [1] | binding [2] | binding [3]
PP1α (from UniProt P62136 1-330) (enzyme) | binds | – | –
B1 | – | binds | no binding
B2 | – | binds weakly | –
B3 | – | binds weakly | –
